Where a name gives a salt, the structure may show the parent alone. Some of the results follow. This data set is noisy: repeats of one test often differ as much as different tests do.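 Flies heterozygous for the ATM8 allele over a balancer chromosome carrying normal ATM were mated with each other on treated food. Parents laid eggs for 5–6 days and the young then developed for about 12 days, so both parents and larvae ate the compound. The read-out is the share of all emerged adults that carry two ATM8 copies, compared with 2% DMSO control vials. The paper called compounds neutral at 10–20% such offspring, harmful below 10%, and helpful above 20%.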 Peptide text beside a SMILES is read from it.
System: Drosophila melanogaster ATM8 (temperature-sensitive ATM allele)
Assay: fraction of eclosed F1 progeny that are homozygous ATM8 (rescue of developmental lethality); higher = more rescue of ATM8 developmental lethality; extreme values may be limits of the assay
Settings: compound concentration applied to food 0.2 mM; 21 °C

| Structure (SMILES) | fraction of eclosed F1 progeny that are homozygous ATM8 |
| --- | --- |
| Cc1cc(O)c(C(=O)N[C@@H](C(=O)N[C@@H]2C(=O)N3C(C(=O)O)=C(CSc4nnnn4C)CS[C@H]23)c2ccc(O)cc2)cn1 | 0.0312 |
| CC(=O)O[C@]1(C(C)=O)CC[C@H]2[C@@H]3C=C(Cl)C4=CC(=O)CC[C@]4(C)[C@H]3CC[C@@]21C | 0.2 |
| CCN(CC)C(C)CN1c2ccccc2Sc2ccccc21 (configuration not stated) | 0.0909 |
| CCCNC(=O)NS(=O)(=O)c1ccc(Cl)cc1 | 0.0789 |
| Clc1cccc(Cl)c1NC1=NCCN1 | 0.0889 |
| CO[C@H]1/C=C/O[C@@]2(C)Oc3c(C)c(O)c4c(O)c(c5c(nc6cc(C)ccn65)c4c3C2=O)NC(=O)/C(C)=C\C=C\[C@H](C)[C@H](O)[C@@H](C)[C@@H](O)[C@@H](C)[C@H](OC(C)=O)[C@@H]1C | 0.298 |
| CCN(CC)C(=O)C1(c2ccccc2)CC1CN (configuration not stated) | 0.19 |
| Cc1cc(C(C)(C)C)cc(C)c1CC1=NCCN1 | 0.265 |
| CCN(CCCCOC(=O)c1ccc(OC)c(OC)c1)C(C)Cc1ccc(OC)cc1 (configuration not stated) | 0.114 |
| CC(C)(CO)[C@@H](O)C(=O)NCCC(=O)O [PANTOTHENIC ACID(d) Na salt] | 0.186 |
| CCN(CC)CCOCCOC(=O)C1(c2ccccc2)CCCC1 | 0.0294 |
| CC#CCn1c(N2CCC[C@@H](N)C2)nc2c1c(=O)n(Cc1nc(C)c3ccccc3n1)c(=O)n2C | 0.385 |
| O=C(CCBr)N1CCN(C(=O)CCBr)CC1 | 0.0625 |
| CCCCC1C(=O)N(c2ccccc2)N(c2ccc(O)cc2)C1=O (configuration not stated) | 0.171 |
| N[C@H]1CONC1=O | 0.279 |
| COc1cc(OC)c2ccc(=O)oc2c1 | 0.0822 |
| COC(=O)C1=CO[C@@H](O[C@@H]2O[C@H](CO)[C@@H](O)[C@H](O)[C@H]2O)[C@H]2[C@@H]1C(=O)C[C@@H]2C | 0.106 |
| COC(=O)C[C@H]1C2(C)CC34OC5(C)O[C@@]6([C@H](OC(C)=O)C(OC(C)=O)[C@]7(C)C(/C(=C(/O)C(C)C)C(=O)O[C@H]7c7ccoc7)[C@@]6(O5)[C@H](OC(C)=O)[C@@]3(O)C2OC(=O)C(C)C)[C@]14C (some centres not stated) | 0.139 |
| C[C@@H]1O[C@@H](O[C@H]2CC[C@]3(C=O)[C@H]4CC[C@]5(C)[C@@H](C6=CC(=O)OC6)CC[C@]5(O)[C@@H]4CC[C@]3(O)C2)[C@H](O)[C@H](O)[C@H]1O | 0.2 |
| COc1cc2nc(N3CCN(C(=O)C4COc5ccccc5O4)CC3)nc(N)c2cc1OC (configuration not stated) | 0.135 |
| CC(=O)Nc1ccc(OC(=O)c2ccccc2O)cc1 | 0.0238 |
| O=C(O)c1cc(=O)c(O)c2c(O)c(O)c(O)cc2c1 | 0.0536 |
| O=c1c(O)c(-c2ccc(O)cc2)oc2cc(O)cc(O)c12 | 0.25 |

| Structure (SMILES) | fraction of eclosed F1 progeny that are homozygous ATM8 |
| --- | --- |
| CCCCCCCCCC[C@H](C(=O)O)[C@]1(C(=O)O)CCC(=O)O1 | 0.0714 |
| CCOC(=O)Nc1nc2ccccc2[nH]1 | 0.0217 |
| CC1(C)C2CC(=O)[C@]3(C)C(CC[C@@]4(C)[C@H](c5ccoc5)OC(=O)C5OC543)[C@@]2(C)[C@@H](O)C[C@H]1O (some centres not stated) | 0.137 |
| COc1ccc(-c2oc3cc(OC)c(OC)c(OC)c3c(=O)c2OC)cc1OC | 0.162 |
| O=C(O)c1ccc[n+]([O-])c1 | 0.0984 |
| CC1C(=O)OC2C1CCC1(C)CCC(=O)C(C)C21 (configuration not stated) | 0.0678 |
| NC[C@H]1O[C@H](O[C@H]2[C@H](O)[C@@H](O[C@H]3O[C@H](CO)[C@@H](O)[C@H](N)[C@H]3O)[C@H](N)C[C@@H]2N)[C@H](N)C[C@@H]1O | 0.0625 |
| O=C(O)C1=CC(=C(c2ccc(O)c(C(=O)O)c2)c2ccc(O)c(C(=O)O)c2)C=CC1=O | 0.0444 |
| O=c1cc(-c2ccccc2)oc2ccccc12 | 0.245 |
| COc1cc(O)c2c(=O)c(OC)c(-c3ccc(OC)c(OC)c3)oc2c1 | 0.205 |
| O=[N+]([O-])C(Br)(CO)CO | 0.163 |
| CC(C(O)c1ccc(O)cc1)N1CCC(Cc2ccccc2)CC1 (configuration not stated) | 0.22 |
| C[C@@H]1C/C=C/C=C/C=C/C=C/[C@H](O[C@@H]2O[C@H](C)[C@@H](O)[C@H](N)[C@@H]2O)C[C@@H]2O[C@](O)(C[C@@H](O)C[C@H]3O[C@@H]3/C=C/C(=O)O1)C[C@H](O)[C@H]2C(=O)O | 0.0312 |
| NCCC(=O)N[C@@H](Cc1c[nH]cn1)C(=O)O | 0.108 |
| CC(C)[C@H](N)C(=O)OCCOCn1cnc2c(=O)nc(N)[nH]c21 | 0.341 |
| COC1=C[C@@H]2[C@@H]3Cc4ccc(OC)c(O)c4[C@]2(CCN3C)CC1=O | 0.0244 |
| CC1(C)O[C@@H]2C[C@H]3[C@@H]4C[C@H](F)C5=CC(=O)C=C[C@]5(C)[C@@]4(F)[C@@H](O)C[C@]3(C)[C@]2(C(=O)CO)O1 | 0.104 |
| COc1cc(NS(=O)(=O)c2ccc(N)cc2)ncn1 | 0.0588 |
| CCCCCCCC/C=C\CCCCCCCC(=O)O.NCCO | 0.178 |
| CC(C)=CCc1c2c(c3occ(-c4ccc(O)c(O)c4)c(=O)c3c1O)C=CC(C)(C)O2 | 0.176 |
| COC(=O)N/N=C/c1c[n+]([O-])c2ccccc2[n+]1[O-] | 0.225 |
| CN(C(=O)CN(CCO)CC(=O)N(C)C(C)(C)Cc1ccccc1)C(C)(C)Cc1ccccc1 | 0.113 |
| CCCCCCNC(=O)n1cc(F)c(=O)[nH]c1=O | 0.25 |

| Structure (SMILES) | fraction of eclosed F1 progeny that are homozygous ATM8 |
| --- | --- |
| O=C1C=CC(=O)c2ccccc21 | 0.105 |
| CCN(Cc1cccc(S(=O)(=O)O)c1)c1ccc(C(=C2C=CC(=[N+](CC)Cc3cccc(S(=O)(=O)O)c3)C=C2)c2ccc(O)cc2S(=O)(=O)[O-])cc1 | 0.075 |
| CCCOc1ccccc1-c1nc2[nH]nnc2c(=O)[nH]1 | 0.265 |
| CC(C)=CCC1=C(O)C(=O)c2ccccc2C1=O | 0.258 |
| COc1ccc(Cl)cc1C(=O)NCCc1ccc(S(=O)(=O)NC(=O)NC2CCCCC2)cc1 | 0.305 |
| CC#C[C@]1(O)CC[C@H]2[C@@H]3CCC4=CC(=O)CCC4=C3[C@@H](c3ccc(N(C)C)cc3)C[C@@]21C | 0.0333 |
| OC[C@@H](O)[C@@H](O[C@@H]1O[C@H](CO)[C@@H](O)[C@H](O)[C@H]1O)[C@H](O)[C@@H](O)CO | 0.314 |
| COc1cc(O)c2c(=O)cc(C)oc2c1CC=C(C)C | 0.128 |
| CCCCOc1cc(C(=O)OCCN(CC)CC)ccc1N | 0 |
| C[N+](C)(C)CC(O)CC(=O)[O-] (configuration not stated) | 0.0357 |
| COC1=CC(=O)C(O)=C/C1=C\C=C\c1ccccc1 | 0.121 |
| CC(C)Oc1ccc2c(=O)c(-c3ccccc3)coc2c1 | 0.0303 |
| Cc1cc2cc3c(C)cc(=O)oc3c(C)c2o1 | 0.25 |
| CC(=O)Nc1c(I)cc(I)c(C(=O)O)c1I | 0.278 |
| CC(=O)O[C@]1(C)CC[C@@]23C[C@H]1C(C)(C)[C@@H]2CC[C@H]3C | 0.0938 |
| CC(=O)Nc1nnc(S(N)(=O)=O)s1 | 0.111 |
| CCC(C)C(=O)O[C@@H]1C[C@@]2(C)[C@H](c3ccoc3)OC(=O)CC23OC2(C)O[C@]14[C@]1(C)[C@@H](CC(=O)OC)C5(C)CC1(O)[C@](O)(C5OC(=O)C1(C)OC1C)[C@@H](OC(C)=O)[C@]34O2 (some centres not stated) | 0.24 |
| O=C(CCCl)NCCc1ccccc1 | 0.154 |
| COC(=O)c1c(OC)cc2c(c1C)Oc1c(Cl)c(O)c(Cl)c(C)c1C(=O)O2 | 0.156 |
| COc1cc(CNC(=O)CCCC/C=C/C(C)C)ccc1O | 0.133 |
| O=C(NCCCN1CCOCC1)c1ccc(Cl)cc1 | 0.04 |
| O=C(O)[C@@H]1[C@H]2C[C@H]3c4[nH]c5ccccc5c4CCN3C[C@@H]2CC[C@@H]1O | 0.0513 |
| C[C@]12CC[C@@H]3c4ccc(O)cc4C[C@@H](CCCCCCCCC[S+]([O-])CCCC(F)(F)C(F)(F)F)[C@H]3[C@@H]1CC[C@@H]2O (some centres not stated) | 0.0294 |

5 entries already listed, ordered by formula weight, descending.

| Structure (SMILES) | fraction of eclosed F1 progeny that are homozygous ATM8 |
| --- | --- |
| NC[C@H]1O[C@H](O[C@H]2[C@H](O)[C@@H](O[C@H]3O[C@H](CO)[C@@H](O)[C@H](N)[C@H]3O)[C@H](N)C[C@@H]2N)[C@H](N)C[C@@H]1O | 0.0625 |
| COC(=O)c1c(OC)cc2c(c1C)Oc1c(Cl)c(O)c(Cl)c(C)c1C(=O)O2 | 0.156 |
| O=C(CCBr)N1CCN(C(=O)CCBr)CC1 | 0.0625 |
| COc1cc(CNC(=O)CCCC/C=C/C(C)C)ccc1O | 0.133 |
| CC1C(=O)OC2C1CCC1(C)CCC(=O)C(C)C21 (configuration not stated) | 0.0678 |

Additional records:

| Structure (SMILES) | fraction of eclosed F1 progeny that are homozygous ATM8 |
| --- | --- |
| C=C[C@](C)(O)CC[C@@H]1[C@@]2(C)CCCC(C)(C)[C@@H]2CC[C@@]1(C)O | 0.0625 |
| CO/N=C(\C(=O)N[C@@H]1C(=O)N2C(C(=O)O)=C(COC(C)=O)CS[C@H]12)c1csc(N)n1 | 0.162 |
| CC(=O)C1CCC2C3CC=C4CC(OS(=O)(=O)O)CCC4(C)C3CCC12C (configuration not stated) | 0.19 |
| COC(=O)[C@H](Cc1ccccc1)NC(=O)[C@@H](N)CC(=O)O (H-Asp-Phe-OMe) | 0.346 |
| NCC(CC(=O)O)c1ccc(Cl)cc1 (racemic) | 0.0784 |
| CC[C@H]1OC(=O)[C@H](C)[C@@H](O[C@H]2C[C@@](C)(OC)[C@@H](O)[C@H](C)O2)[C@H](C)[C@@H](O[C@@H]2O[C@H](C)C[C@H](N(C)C)[C@H]2O)[C@](C)(O)C[C@@H](C)CN(C)[C@H](C)[C@@H](O)[C@]1(C)O | 0.25 |
| CCOC(=O)C(Cc1ccc(O)cc1)NC(C)=O (configuration not stated) | 0.222 |
| CN[C@H]1CC[C@@H](c2ccc(Cl)c(Cl)c2)c2ccccc21 | 0.194 |
| Nc1ccc(S(=O)(=O)Nc2nccs2)cc1 | 0.114 |
| CN1C[C@H](C(=O)N[C@]2(C)O[C@@]3(O)[C@@H]4CCCN4C(=O)[C@H](Cc4ccccc4)N3C2=O)C=C2c3cccc4[nH]cc(c34)C[C@H]21 | 0.0769 |
| O=C1c2ccccc2C(=O)c2c(O)c(O)cc(O)c21 | 0.293 |
| Cc1ccc(-c2cc(C(F)(F)F)nn2-c2ccc(S(N)(=O)=O)cc2)cc1 | 0.17 |
| CNc1ccccc1C(=O)O | 0.0556 |
| CC(C)[N+]1(C)[C@@H]2CC[C@H]1C[C@@H](OC(=O)C(CO)c1ccccc1)C2 (some centres not stated) | 0 |
| O=C(O)C1=C(CSc2nnnn2CS(=O)(=O)O)CS[C@@H]2[C@H](NC(=O)[C@H](O)c3ccccc3)C(=O)N12 | 0 |
| CC(C)CC(NC(=O)[C@H](C)N)C(=O)O (mixture of isomers) | 0.0769 |
| NC[C@H](O)c1ccc(O)c(O)c1 | 0.13 |
| CCN(CC)CCNC(=O)c1ccc(N)cc1 | 0.191 |
| O[C@H]1[C@H](O)[C@@H](O)C2OC[C@H]1O2 | 0.0244 |
| CCCCCCOc1ccccc1C(N)=O | 0.075 |
| CC(=O)c1cc2ccccc2oc1=O | 0.0943 |
| O=c1cc[nH]c(=O)[nH]1 | 0.0227 |
| C=CCN1CC[C@]23c4c5ccc(O)c4O[C@H]2C(=O)CC[C@@]3(O)[C@H]1C5 | 0.103 |

Reference: the supplement of paper PMC5770031
